# Data taken from PubChem BioAssay AID2685 (National Center for Advancing Translational Sciences (NCATS), 2010).
# Some of the results follow. The main result of the screen is listed elsewhere. These columns were measured beside it and carry no call. Compounds called inactive in the main read-out are mostly missing here. Words in brackets tell the shape of the fitted curve; partial curves, single points and poor fits give uncertain potencies.
# Experiment: qHTS Assay for Lipid Storage Modulators in Drosophila S3 Cells;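 for cell number change: cells counted by Cell Tracker Red CMTPX staining in the red channel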
# Conditions: BODIPY lipid droplet fluorescence, 18-24 h; for cell number change: measured here: cell count max response, cells fed with added oleic acid
# Method in brief: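 Drosophila S3 cells got compounds at several concentrations plus oleic acid (400 uM solution). Laser-scanning cytometry with 488 nm excitation read lipid droplets at 500-530 nm and cells at 575-640 nm. Percent activity was relative to 20 uM Triacsin C.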
# [1] = measured here: cell number channel AC50, cells fed with added oleic acid
# [2] = measured here: lipid fluorescence (Fed channel) AC50, cells fed with added oleic acid
Compound,cell number change [%],AC50 [1],AC50 [2]
CC(N)C12CC3CC(CC(O)(C3)C1)C2 (stereo not given),-65.3,"7.31 µM [falling, partial curve]","5.17 µM [falling, single point]"
CCOc1ccc(NC(=O)CSc2nc3cccnc3n2CCOC)cc1,–,–,"2.91 µM [rising, single point]"
Cc1coc2c1c(C)cc1oc(=O)c(CC(=O)NCCCN3CCCC3=O)c(C)c12,-24.8,–,"7.31 µM [falling, partial curve, poor fit]"
CSc1ccc(/C=C/C(=O)c2ccc(NC(=O)Cc3ccccc3)cc2)cc1,10.5,–,"29.1 µM [falling, single point]"
CC(C)CNc1c(N)c(=O)oc2ccccc12,44.2,"7.31 µM [rising, partial curve]","6.51 µM [rising, single point]"
COc1ccc(NC(=O)C2CCCN(S(=O)(=O)c3ccc4c(c3)oc(=O)n4C)C2)cc1OC (stereo not given),40.5,"29.1 µM [rising, single point]",–
CC1=CC(=C(C#N)C#N)C=C(C)N1CCN1CCN(C(=O)Nc2cccc(Cl)c2)CC1,-8.49,–,"14.6 µM [falling, single point]"
O=C(CCNC(=O)c1ccc(Br)cc1)Nc1ccccc1N1CCOCC1,–,"1.46 µM [rising, partial curve]",–
CCCCNC(=O)[C@@H]1CCCN1S(=O)(=O)c1cccc2cccnc12,22.1,–,"0.731 µM [rising, full curve, poor fit]"
CCC(=O)NC(=S)NNC(=O)c1ccccc1[N+](=O)[O-],-18.5,–,"0.13 µM [falling, full curve, poor fit]"
O=C1NC(=S)N/C1=C/c1cccc2ccccc12,-9.72,–,"2.91 µM [falling, full curve]"
Cc1ccc(-c2nn(C)c(=O)c3ccccc23)cc1CN1CCOCC1,-9.42,"0.0731 µM [falling, full curve, poor fit]","2.91 µM [rising, partial curve]"
COc1cc(NC(=O)c2cccc(C)c2)ccc1NC(=O)c1cc2ccccc2o1,-19.4,–,"29.1 µM [rising, single point]"
Clc1ccc(-n2cccc2)cn1,21.6,–,–
COc1ccc(C(=O)NNC(=O)COc2ccc(Cl)cc2C)cc1S(=O)(=O)N1CCOCC1,49.5,–,–
CN(C)C(=O)c1ccccc1-c1ccccc1,-18.5,–,–
Cc1ccc(Nc2nc(C)cc(C)c2C(N)=O)cc1,100,"8.2 µM [rising, partial curve]","9.2 µM [rising, partial curve]"
COc1ccccc1NS(=O)(=O)c1ccc(NC(=O)Cc2cccs2)cc1,19.9,–,"5.8 µM [rising, full curve, poor fit]"
N#C/C(=C\c1cccnc1)c1ccccn1,-2.78,–,–
CCc1ccc(Nc2ncnc3nc[nH]c23)cc1,–,–,"6.51 µM [rising, single point]"
O=C(CCNS(=O)(=O)c1ccccc1)NNC(=O)COc1ccc(Cl)cc1,6.22,–,–

Compound,cell number change [%],AC50 [1],AC50 [2]
Cc1nc(=O)c(-c2ccccc2)c(C)n1CCCO,-76.5,"6.51 µM [falling, full curve]","1.16 µM [falling, partial curve]"
COCCCNc1nc(SCc2ccccc2)nc2sc3c(c12)CCC3,-15.5,–,–
O=C(NCc1ccc(F)cc1)C(=O)NCC1OCCCN1S(=O)(=O)c1cccs1 (stereo not given),44.2,"0.794 µM [rising, full curve, poor fit]","12.6 µM [rising, partial curve]"
COc1cc(NC(=S)N2CCN(S(=O)(=O)c3ccc(C)cc3)CC2)cc(OC)c1,29.8,"3.66 µM [rising, full curve, poor fit]","29.1 µM [rising, single point]"
O=C(NCc1cc(F)cc(C(F)(F)F)c1)C1CCC(=O)N(C2CCCC2)C1 (stereo not given),–,–,"29.1 µM [falling, single point]"
COc1cccc(N2CC(C)Cn3c2nc2c3c(=O)n(CCN3CCOCC3)c(=O)n2C)c1 (stereo not given),20.9,–,"20.6 µM [rising, single point]"
O=c1oc2ccc(C#CC3(O)CCCCC3)cc2cc1-n1cc(C2(O)CCCCC2)nn1,-1.24,–,"0.116 µM [rising, full curve, poor fit]"
COc1ccccc1N1CCN(C(=O)CNS(=O)(=O)c2ccc(Br)s2)CC1,14,–,"29.1 µM [rising, single point]"
COC(F)(C(=O)Nc1ccc2c(c1)C(=O)NC2=O)C(F)(F)F (stereo not given),-12,–,"32.6 µM [falling, single point]"
CN(CC(=O)Nc1ccccc1N1CCOCC1)CC(=O)Nc1ccc(F)c(F)c1F,35.3,–,"29.1 µM [rising, single point]"
O=C(CN1C(=O)N/C(=C\c2ccccc2OCc2ccc(C(=O)O)cc2)C1=O)Nc1ccccc1F,-26.7,–,–
Cc1cc(OCC(=O)NCCCn2ccnc2)c2c(C)cc(=O)oc2c1,34,"29.1 µM [rising, single point]",–
Clc1ccccc1CSC1=NCCN1,-18.2,–,"29.1 µM [falling, single point]"
O=C(N/N=C/c1ccncc1)c1nn(Cc2ccccc2)c(=O)c2ccccc12,49.4,"1.3 µM [rising, partial curve]",–
CCc1ccccc1NC(=O)c1onc(C)c1Cl,11.9,–,"0.13 µM [rising, full curve, poor fit]"
O=C(CCCc1nc(-c2ccccc2)no1)NC1CCCCC1,27.6,–,–
COC(=O)c1cc(=O)n(CCc2ccccc2F)c(=Nc2ccc(F)c(Cl)c2)s1,–,–,"2.31 µM [rising, single point]"
Cc1cc(C)c2cc(C#N)c(SCC(=O)NCc3ccco3)nc2c1,-2.23,–,"2.91 µM [rising, partial curve]"
CCc1nnc(N2C(=O)c3cccc4cccc(c34)C2=O)s1,–,"2.06 µM [rising, partial curve]","0.58 µM [rising, single point]"
O=C1Nc2ccccc2C(=O)N2[C@H](c3ccccc3)[C@@H]3C(=O)N(Cc4ccccc4)C(=O)[C@@H]3[C@H]12,–,–,"0.731 µM [rising, single point]"
O=C(Nc1ccc2c(c1)C(=O)NC2=O)c1ccccc1Cl,9.28,–,–

# Only cell number change [%] and AC50 [2], for some of the entries so far:
Compound | cell number change [%] | AC50 [2]
COCCCNc1nc(SCc2ccccc2)nc2sc3c(c12)CCC3 | -15.5 | –
O=C(CN1C(=O)N/C(=C\c2ccccc2OCc2ccc(C(=O)O)cc2)C1=O)Nc1ccccc1F | -26.7 | –
Clc1ccccc1CSC1=NCCN1 | -18.2 | 29.1 µM [falling, single point]
CCc1nnc(N2C(=O)c3cccc4cccc(c34)C2=O)s1 | – | 0.58 µM [rising, single point]

# Continuation.

Compound,cell number change [%],AC50 [1],AC50 [2]
NS(=O)(=O)c1ccc(CNC(=O)c2cc(-c3cccnc3)nc3ccccc23)cc1,10.4,–,"14.6 µM [rising, partial curve]"
COC(=O)Nc1nnc(/C=C/c2ccccc2)s1,2.66,–,"13 µM [rising, partial curve, poor fit]"
COc1ccc(NC(=S)NNC(=O)c2ccc(S(=O)(=O)N3CCOCC3)cc2)cc1,–,"1.16 µM [falling, single point]",–
COc1ccc(Cl)cc1S(=O)(=O)NCc1ccncc1,23.9,–,"0.00517 µM [rising, full curve]"
O=C(N/N=C/c1cccs1)c1[nH]ncc1Br,18.8,–,"5.8 µM [falling, partial curve, poor fit]"
CCn1ncc(S(=O)(=O)Nc2cccnc2)c1C,18.1,–,–
N=C(N)CCCOc1ccccc1-c1ccccc1,-5.16,–,–
Cc1ccc(Nc2nc(Nc3ccc(C)cc3)nc(SC3=NCCS3)n2)cc1,–,–,"0.58 µM [rising, single point]"
Cc1ccc(CN2CCN(C(=O)CCc3ccccc3)CC2)cc1,9.68,–,–
O=C(CSc1nnc(-c2ccccc2O)o1)Oc1ccc(Br)cc1,-52.5,"29.1 µM [falling, single point]","18.4 µM [falling, single point]"
COC(=O)c1ccc(NC(=S)Nc2ccc3ccccc3c2)cc1,27.1,–,"29.1 µM [rising, single point]"
CC1(C)Cc2c(c(=S)nc(-c3ccccc3)n2CCCN2CCOCC2)CO1,–,"6.51 µM [falling, single point]",–
CCOC(=O)c1c(NC(=O)CN2C(=O)NC3(CCCCCC3)C2=O)sc(C)c1-c1ccc(C)cc1,-62.9,"14.6 µM [falling, partial curve]","6.51 µM [rising, partial curve]"
CCc1ccc(NC(=O)CC2S/C(=N/N=C3CCCCCC3)NC2=O)cc1 (stereo not given),-13.5,–,"29.1 µM [rising, single point]"
OCCSc1ncnc2c1oc1ccccc12,-2.3,–,–
Cn1cc(C(=O)Nc2ccccn2)c(=O)c2ccccc21,-6.94,–,–
Nc1nnc(CSc2ccc(Cl)cc2)s1,17.4,"3.26 µM [rising, partial curve]","2.06 µM [rising, partial curve]"
Cc1ccc(S(=O)(=O)N2CCCCC2)cc1NC(=O)COc1ccccc1F,47.9,"10.3 µM [rising, partial curve]","0.731 µM [rising, partial curve]"
CN(CCOC(=O)c1cccc(F)c1)Cc1ccccc1,-3.98,"3.66 µM [falling, single point]","6.51 µM [falling, single point]"
CCC(C)C1Nc2ccc(C(=O)NCCc3ccc(OC)c(OC)c3)cc2NC1=O (stereo not given),7.69,–,"25.9 µM [falling, partial curve, poor fit]"
COc1ccccc1-c1noc(CSc2nc(C)cc(=O)[nH]2)n1,3.87,–,"2.31 µM [rising, partial curve]"
